{
  "source": "the supplement of paper PMC8728848",
  "assay_in_all_cases": "glycan array binding signal (z-score within array); higher = stronger binding",
  "conditions_in_all_cases": "glycan notation: IUPAC condensed, linker removed",
  "key": {"Fuc(a1-2)Gal": {"biological_target": "Fuc(a1-2)Gal", "in_short": "(§1)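 From the Consortium for Functional Glycomics database, 3228 arrays were curated, keeping only those whose protein sequence was available. Binding is given as a within-array Z-score averaged across arrays sharing a protein sequence and across linkers. Negative Z-scores can be read as non-binding.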"}, "Fuc(a1-2)Gal(b1-3)GalNAc": {"biological_target": "Fuc(a1-2)Gal(b1-3)GalNAc", "in_short": "as §1"}, "[1]": {"biological_target": "Fuc(a1-2)Gal(b1-3)GalNAc(b1-3)Gal", "in_short": "as §1"}, "[2]": {"biological_target": "Fuc(a1-2)Gal(b1-3)GalNAc(b1-3)Gal(a1-4)Gal(b1-4)Glc", "in_short": "as §1"}, "[3]": {"biological_target": "Fuc(a1-2)Gal(b1-3)GalNAc(b1-3)Gal(b1-4)Glc", "in_short": "as §1"}, "[4]": {"biological_target": "Fuc(a1-2)Gal(b1-3)GalNAc(b1-4)[Neu5Ac(a2-3)]Gal(b1-4)Glc", "in_short": "as §1"}, "Fuc(a1-2)Gal(b1-3)GlcNAc": {"biological_target": "Fuc(a1-2)Gal(b1-3)GlcNAc", "in_short": "as §1"}, "[5]": {"biological_target": "Fuc(a1-2)Gal(b1-3)[Fuc(a1-4)]GlcNAc", "in_short": "as §1"}, "Fuc(a1-2)Gal(b1-4)Glc": {"biological_target": "Fuc(a1-2)Gal(b1-4)Glc", "in_short": "as §1"}, "Fuc(a1-2)Gal(b1-4)Glc6S": {"biological_target": "Fuc(a1-2)Gal(b1-4)Glc6S", "in_short": "as §1"}, "Fuc(a1-2)Gal(b1-4)GlcNAc": {"biological_target": "Fuc(a1-2)Gal(b1-4)GlcNAc", "in_short": "as §1"}, "[6]": {"biological_target": "Fuc(a1-2)Gal(b1-4)GlcNAc(b1-3)Gal(b1-4)GlcNAc", "in_short": "as §1"}, "[7]": {"biological_target": "Fuc(a1-2)Gal(b1-4)GlcNAc(b1-3)Gal(b1-4)GlcNAc(b1-3)Gal(b1-4)GlcNAc", "in_short": "as §1"}, "[8]": {"biological_target": "Fuc(a1-2)Gal(b1-4)GlcNAc6S", "in_short": "as §1"}, "[9]": {"biological_target": "Fuc(a1-2)Gal(b1-4)[Fuc(a1-3)]GalNAc(b1-3)Gal(b1-4)[Fuc(a1-3)]GlcNAc", "in_short": "as §1"}, "[10]": {"biological_target": "Fuc(a1-2)Gal(b1-4)[Fuc(a1-3)]GalNAc(b1-3)Gal(b1-4)[Fuc(a1-3)]GlcNAc(b1-3)Gal(b1-4)[Fuc(a1-3)]GalNAc", "in_short": "as §1"}, "[11]": {"biological_target": "Fuc(a1-2)Gal(b1-4)[Fuc(a1-3)]GlcNAc", "in_short": "as §1"}, "Fuc(a1-2)Gal6S(b1-4)Glc": {"biological_target": "Fuc(a1-2)Gal6S(b1-4)Glc", "in_short": "as §1"}, "[12]": {"biological_target": "Fuc(a1-2)Gal6S(b1-4)Glc6S", "in_short": "as §1"}, "[13]": {"biological_target": "Fuc(a1-2)Gal6S(b1-4)GlcNAc", "in_short": "as §1"}, "Fuc(a1-2)GlcNAc": {"biological_target": "Fuc(a1-2)GlcNAc", "in_short": "as §1"}, "Fuc(a1-2)[Gal(a1-3)]Gal": {"biological_target": "Fuc(a1-2)[Gal(a1-3)]Gal", "in_short": "as §1"}, "[14]": {"biological_target": "Fuc(a1-2)[Gal(a1-3)]Gal(b1-3)GlcNAc", "in_short": "as §1"}, "[15]": {"biological_target": "Fuc(a1-2)[Gal(a1-3)]Gal(b1-4)Glc", "in_short": "as §1"}, "[16]": {"biological_target": "Fuc(a1-2)[Gal(a1-3)]Gal(b1-4)GlcNAc", "in_short": "as §1"}, "[17]": {"biological_target": "Fuc(a1-2)[Gal(a1-3)]Gal(b1-4)[Fuc(a1-3)]GlcNAc", "in_short": "as §1"}, "[18]": {"biological_target": "Fuc(a1-2)[Gal(a1-4)]Gal(b1-4)GalNAc", "in_short": "as §1"}, "[19]": {"biological_target": "Fuc(a1-2)[Gal(a1-4)]Gal(b1-4)GlcNAc", "in_short": "as §1"}, "[20]": {"biological_target": "Fuc(a1-2)[GalNAc(a1-3)]Gal", "in_short": "as §1"}, "[21]": {"biological_target": "Fuc(a1-2)[GalNAc(a1-3)]Gal(b1-3)GlcNAc", "in_short": "as §1"}, "[22]": {"biological_target": "Fuc(a1-2)[GalNAc(a1-3)]Gal(b1-4)Glc", "in_short": "as §1"}, "[23]": {"biological_target": "Fuc(a1-2)[GalNAc(a1-3)]Gal(b1-4)GlcNAc", "in_short": "as §1"}, "[24]": {"biological_target": "Fuc(a1-2)[GalNAc(a1-3)]Gal(b1-4)[Fuc(a1-3)]GlcNAc", "in_short": "as §1"}, "[25]": {"biological_target": "Fuc(a1-2)[GalNAc(a1-4)]Gal(b1-4)GlcNAc", "in_short": "as §1"}, "[26]": {"biological_target": "Fuc(a1-2)[GalNAc(b1-3)]Gal", "in_short": "as §1"}, "Fuc(a1-3)GlcNAc": {"biological_target": "Fuc(a1-3)GlcNAc", "in_short": "as §1"}, "[27]": {"biological_target": "Fuc(a1-3)[Gal(b1-4)]Glc6S", "in_short": "as §1"}},
  "note": "The other results are listed elsewhere or left out.",
  "data": [
    {"binder": "TIM-1 (Mus musculus), AAL35774 (protein) MNQIQVFISGLILLLPGAVDSYVEVKGVVGHPVTLPCTYSTYRGITTTCWGRGQCPSSACQNTLIWTNGHRVTYQKSSRYNLKGHISEGDVSLTIENSVESDSGLYCCRVEIPGWFNDQKVTFSLQVKPEIPTRPPTRPTTTRPTATGRPTTISTRSTHVPTSIRVSTSTPPTSTHTWTHKPEPTTFCPHETTAEVTGIPSHTPTDWNGTVTSSGDTWSNHTEAIPPGKPQKNPTKGFYVGICIAALLLLLLVSTVAITRYILMKRKSASLSVVAFRVSKIEALQNAAVVHSRAEDNIYIVEDRP", "values": [
      {"measurement": "glycan array binding signal (z-score)", "setting": "Fuc(a1-2)Gal", "value": 0.048},
      {"measurement": "glycan array binding signal (z-score)", "setting": "Fuc(a1-2)Gal(b1-3)GalNAc", "value": -0.16},
      {"measurement": "glycan array binding signal (z-score)", "setting": "[1]", "value": 1.08},
      {"measurement": "glycan array binding signal (z-score)", "setting": "[2]", "value": -0.186},
      {"measurement": "glycan array binding signal (z-score)", "setting": "[3]", "value": -0.23},
      {"measurement": "glycan array binding signal (z-score)", "setting": "[4]", "value": -0.103},
      {"measurement": "glycan array binding signal (z-score)", "setting": "Fuc(a1-2)Gal(b1-3)GlcNAc", "value": -0.171},
      {"measurement": "glycan array binding signal (z-score)", "setting": "[5]", "value": -0.554},
      {"measurement": "glycan array binding signal (z-score)", "setting": "Fuc(a1-2)Gal(b1-4)Glc", "value": 0.483},
      {"measurement": "glycan array binding signal (z-score)", "setting": "Fuc(a1-2)Gal(b1-4)Glc6S", "value": -0.504},
      {"measurement": "glycan array binding signal (z-score)", "setting": "Fuc(a1-2)Gal(b1-4)GlcNAc", "value": 0.782},
      {"measurement": "glycan array binding signal (z-score)", "setting": "[6]", "value": -0.209},
      {"measurement": "glycan array binding signal (z-score)", "setting": "[7]", "value": 0.178},
      {"measurement": "glycan array binding signal (z-score)", "setting": "[8]", "value": -0.823},
      {"measurement": "glycan array binding signal (z-score)", "setting": "[9]", "value": -0.386},
      {"measurement": "glycan array binding signal (z-score)", "setting": "[10]", "value": -0.596},
      {"measurement": "glycan array binding signal (z-score)", "setting": "[11]", "value": -0.385},
      {"measurement": "glycan array binding signal (z-score)", "setting": "Fuc(a1-2)Gal6S(b1-4)Glc", "value": -0.753},
      {"measurement": "glycan array binding signal (z-score)", "setting": "[12]", "value": -0.608},
      {"measurement": "glycan array binding signal (z-score)", "setting": "[13]", "value": -0.968},
      {"measurement": "glycan array binding signal (z-score)", "setting": "Fuc(a1-2)GlcNAc", "value": -0.289},
      {"measurement": "glycan array binding signal (z-score)", "setting": "Fuc(a1-2)[Gal(a1-3)]Gal", "value": 0.559},
      {"measurement": "glycan array binding signal (z-score)", "setting": "[14]", "value": -0.421},
      {"measurement": "glycan array binding signal (z-score)", "setting": "[15]", "value": -0.009},
      {"measurement": "glycan array binding signal (z-score)", "setting": "[16]", "value": -0.256},
      {"measurement": "glycan array binding signal (z-score)", "setting": "[17]", "value": 0.1},
      {"measurement": "glycan array binding signal (z-score)", "setting": "[18]", "value": -0.058},
      {"measurement": "glycan array binding signal (z-score)", "setting": "[19]", "value": 0.88},
      {"measurement": "glycan array binding signal (z-score)", "setting": "[20]", "value": -0.325},
      {"measurement": "glycan array binding signal (z-score)", "setting": "[21]", "value": -0.323},
      {"measurement": "glycan array binding signal (z-score)", "setting": "[22]", "value": -0.228},
      {"measurement": "glycan array binding signal (z-score)", "setting": "[23]", "value": -0.268},
      {"measurement": "glycan array binding signal (z-score)", "setting": "[24]", "value": -0.493},
      {"measurement": "glycan array binding signal (z-score)", "setting": "[25]", "value": -0.239},
      {"measurement": "glycan array binding signal (z-score)", "setting": "[26]", "value": -0.205},
      {"measurement": "glycan array binding signal (z-score)", "setting": "Fuc(a1-3)GlcNAc", "value": -0.318},
      {"measurement": "glycan array binding signal (z-score)", "setting": "[27]", "value": -0.34}
    ]}
  ]
}
